Assay [1] concerns the target HA-MYOF (hemagglutinin-tagged myoferlin) (human) (UniProt Q9NZM1). The assay can be described thus: co-IP; HA-MYOF and Flag-Rab7 co-transfected in 293T cells; reciprocal immunoprecipitation with anti-HA affinity gel; cells untreated or exposed to WJ460 (50, 100, 200 nM).
Another assay has as its target Flag-Rab7 (UniProt P51149). As to the kind of experiment: co-IP; HA-MYOF and Flag-Rab7 co-transfected in 293T cells; immunoprecipitation with anti-Flag M2 affinity gel; cells untreated or exposed to WJ460 (50, 100, 200 nM).
Assay [2] deals with Rab7, endogenous in MDA-MB-231 cells (human (endogenous in MDA-MB-231)) (UniProt P51149). As to the kind of experiment: co-IP; endogenous proteins of MDA-MB-231 cells; immunoprecipitation with anti-Rab7 antibody; cells untreated or treated with WJ460 (50, 100, 200 nM).

Amino acid sequences for entries named in this document (tags omitted).
UniProt Q9NZM1: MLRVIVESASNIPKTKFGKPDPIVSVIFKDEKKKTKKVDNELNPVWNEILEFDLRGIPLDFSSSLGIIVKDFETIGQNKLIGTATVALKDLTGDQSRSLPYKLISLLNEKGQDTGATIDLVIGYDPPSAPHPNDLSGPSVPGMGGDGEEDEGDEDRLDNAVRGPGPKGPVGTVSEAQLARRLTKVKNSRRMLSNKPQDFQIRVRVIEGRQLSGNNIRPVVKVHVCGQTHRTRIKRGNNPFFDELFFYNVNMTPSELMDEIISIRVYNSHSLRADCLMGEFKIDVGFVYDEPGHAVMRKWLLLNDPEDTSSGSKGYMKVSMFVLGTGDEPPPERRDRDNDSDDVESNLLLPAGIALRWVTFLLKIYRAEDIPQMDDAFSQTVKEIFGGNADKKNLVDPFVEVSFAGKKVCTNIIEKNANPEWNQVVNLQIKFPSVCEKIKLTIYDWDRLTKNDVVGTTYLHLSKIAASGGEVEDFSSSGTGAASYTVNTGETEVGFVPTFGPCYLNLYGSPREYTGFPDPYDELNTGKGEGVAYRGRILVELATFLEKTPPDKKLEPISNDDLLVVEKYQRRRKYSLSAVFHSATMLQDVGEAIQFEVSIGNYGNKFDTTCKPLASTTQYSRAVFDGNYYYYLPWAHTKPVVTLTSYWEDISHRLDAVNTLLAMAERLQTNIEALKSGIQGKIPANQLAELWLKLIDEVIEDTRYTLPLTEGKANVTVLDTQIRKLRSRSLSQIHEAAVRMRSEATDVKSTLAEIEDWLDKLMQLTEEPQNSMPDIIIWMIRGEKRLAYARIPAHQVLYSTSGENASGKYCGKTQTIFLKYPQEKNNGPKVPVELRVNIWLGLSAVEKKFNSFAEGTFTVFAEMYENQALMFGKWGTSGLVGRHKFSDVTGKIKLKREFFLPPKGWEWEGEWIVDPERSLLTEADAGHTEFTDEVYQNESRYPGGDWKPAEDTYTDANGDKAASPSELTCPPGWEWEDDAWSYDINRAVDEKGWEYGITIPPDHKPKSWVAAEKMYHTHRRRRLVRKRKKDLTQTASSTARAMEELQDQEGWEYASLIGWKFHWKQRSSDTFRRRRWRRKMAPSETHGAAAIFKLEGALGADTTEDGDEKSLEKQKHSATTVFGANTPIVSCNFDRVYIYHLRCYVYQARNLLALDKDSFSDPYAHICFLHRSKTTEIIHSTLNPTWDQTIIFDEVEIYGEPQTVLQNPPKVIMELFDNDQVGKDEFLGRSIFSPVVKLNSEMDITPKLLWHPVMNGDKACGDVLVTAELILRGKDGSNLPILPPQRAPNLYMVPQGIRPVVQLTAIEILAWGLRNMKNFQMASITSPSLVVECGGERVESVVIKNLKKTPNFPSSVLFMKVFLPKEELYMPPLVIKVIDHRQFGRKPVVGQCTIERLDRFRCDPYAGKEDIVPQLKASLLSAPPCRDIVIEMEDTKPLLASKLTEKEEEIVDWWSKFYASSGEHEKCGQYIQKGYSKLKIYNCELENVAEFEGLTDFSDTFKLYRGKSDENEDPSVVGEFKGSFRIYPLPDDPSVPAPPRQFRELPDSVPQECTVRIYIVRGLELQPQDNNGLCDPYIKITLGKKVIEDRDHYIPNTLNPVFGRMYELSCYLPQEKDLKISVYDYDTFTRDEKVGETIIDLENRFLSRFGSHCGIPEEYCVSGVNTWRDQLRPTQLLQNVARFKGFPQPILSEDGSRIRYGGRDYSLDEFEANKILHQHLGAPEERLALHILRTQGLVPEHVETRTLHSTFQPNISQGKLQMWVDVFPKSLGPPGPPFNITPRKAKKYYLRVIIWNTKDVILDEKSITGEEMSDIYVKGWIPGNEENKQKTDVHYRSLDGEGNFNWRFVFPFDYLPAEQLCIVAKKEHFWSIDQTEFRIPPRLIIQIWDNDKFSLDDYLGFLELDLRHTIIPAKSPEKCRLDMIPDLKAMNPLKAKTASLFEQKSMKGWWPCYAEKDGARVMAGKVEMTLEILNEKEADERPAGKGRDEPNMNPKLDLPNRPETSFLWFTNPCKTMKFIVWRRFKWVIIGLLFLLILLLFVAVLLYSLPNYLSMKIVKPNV
UniProt P51149: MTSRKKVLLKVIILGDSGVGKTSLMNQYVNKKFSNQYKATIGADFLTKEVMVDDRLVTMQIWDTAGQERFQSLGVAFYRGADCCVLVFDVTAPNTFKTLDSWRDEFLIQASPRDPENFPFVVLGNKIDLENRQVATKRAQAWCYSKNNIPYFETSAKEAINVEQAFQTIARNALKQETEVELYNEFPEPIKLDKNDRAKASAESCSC

No constants are given. Whether binding was seen depends on the method and setting. Binding seen in cells or lysates may run through a third protein. Some results given as binding are weak or reduced against the parent protein; the word gives no strength.

As to Flag-Rab7 (from UniProt P51149 1-207), in assay [1], the binding result is “binds”.
Take “HA-MYOF (hemagglutinin-tagged myoferlin) (from UniProt Q9NZM1 1-2061)”: the binding entry with Flag-Rab7 is given as “binds”.
For the substance “myoferlin (MYOF), endogenous in MDA-MB-231 cells (from UniProt Q9NZM1 1-2061)”, the binding result in assay [2] was “binds”.
